# Screening data, single-dose tests

The chains behind the UniProt entries cited, without tags or fusion partners. Residues count along the entry.
UniProt A4I591, 1-473: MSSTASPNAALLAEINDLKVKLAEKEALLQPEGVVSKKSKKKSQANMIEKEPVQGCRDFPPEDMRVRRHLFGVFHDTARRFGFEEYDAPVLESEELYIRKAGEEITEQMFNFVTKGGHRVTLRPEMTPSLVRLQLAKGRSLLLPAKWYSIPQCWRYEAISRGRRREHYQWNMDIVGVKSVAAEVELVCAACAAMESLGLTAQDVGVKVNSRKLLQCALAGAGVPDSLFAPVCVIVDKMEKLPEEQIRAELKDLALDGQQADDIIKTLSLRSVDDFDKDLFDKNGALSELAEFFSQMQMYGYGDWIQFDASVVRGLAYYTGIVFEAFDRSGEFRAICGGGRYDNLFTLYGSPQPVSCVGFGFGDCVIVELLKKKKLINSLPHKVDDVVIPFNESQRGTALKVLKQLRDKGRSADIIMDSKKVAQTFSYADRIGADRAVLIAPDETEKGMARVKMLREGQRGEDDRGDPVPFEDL
UniProt P9WPC5, whole entry: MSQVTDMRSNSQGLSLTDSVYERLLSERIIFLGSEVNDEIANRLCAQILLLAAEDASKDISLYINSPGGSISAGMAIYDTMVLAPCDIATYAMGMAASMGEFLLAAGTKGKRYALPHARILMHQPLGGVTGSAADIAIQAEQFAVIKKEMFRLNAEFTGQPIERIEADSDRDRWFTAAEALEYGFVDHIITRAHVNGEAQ
UniProt P9WPC3, whole entry partner: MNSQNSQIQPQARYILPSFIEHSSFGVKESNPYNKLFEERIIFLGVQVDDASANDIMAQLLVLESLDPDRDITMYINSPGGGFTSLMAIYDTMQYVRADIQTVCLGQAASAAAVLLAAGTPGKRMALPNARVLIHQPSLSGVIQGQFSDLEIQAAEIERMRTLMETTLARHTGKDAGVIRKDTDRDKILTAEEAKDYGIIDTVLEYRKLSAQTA
UniProt Q4DA54, 1-478: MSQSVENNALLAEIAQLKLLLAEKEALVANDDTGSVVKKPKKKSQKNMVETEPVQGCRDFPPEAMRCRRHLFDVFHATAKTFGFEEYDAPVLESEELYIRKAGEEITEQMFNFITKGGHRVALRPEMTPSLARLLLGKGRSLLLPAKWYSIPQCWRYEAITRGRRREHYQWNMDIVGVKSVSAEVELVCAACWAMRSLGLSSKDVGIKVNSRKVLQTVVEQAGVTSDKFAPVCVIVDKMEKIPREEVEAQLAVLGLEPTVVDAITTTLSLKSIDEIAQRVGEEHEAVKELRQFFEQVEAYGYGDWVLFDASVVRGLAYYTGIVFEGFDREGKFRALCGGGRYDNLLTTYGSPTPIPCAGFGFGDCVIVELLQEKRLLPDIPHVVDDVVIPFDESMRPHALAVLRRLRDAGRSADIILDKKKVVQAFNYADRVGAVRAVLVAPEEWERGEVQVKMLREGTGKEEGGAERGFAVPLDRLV

Measurements from “University of Dundee, Small-Polar-MMV Screening Library” (2021), ChEMBL document CHEMBL3988442.

Values are the deposited “Percent Effect”, in %. The controls that fix the scale are not given in the record; negative values are as filed. Compounds were drawn at random from those tested, without regard to their results.

A: 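Assay of Toxoplasma gondii numbers, read through their beta-galactosidase reporter with a colour substrate. Tested at 10 µM. The record gives no direction; the compounds picked for IC50 retests had high values, so higher reads as fewer parasites. Size under these conditions: about 67,000 compounds, about 260 of them at 50% or above in at least one test.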
B: 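Whole-parasite assay of Trypanosoma brucei over 72 hours; the read-out is not stated. Concentration: 30 µM. Direction is inferred from retests: higher values go with stronger inhibition. Values scatter widely below zero; nearly all retest evidence comes from the higher of the two concentrations used. Of about 64,000 compounds tested this way, about 940 (1.5%) reached 50% or more in at least one test.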
C: 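Histidine-tRNA ligase, Leishmania infantum (UniProt A4I591). Enzyme assay of histidyl-tRNA synthetase; the read-out is not stated. Concentration: 30 µM. The record gives no direction; compounds that gave an IC50 in retests scored well above the rest, so higher reads as stronger inhibition. The assay is labelled LdHisRS but filed under L. infantum. About 69,000 compounds were tested under these conditions; 0.6% (about 410) showed 50% or more at least once.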
D: 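Protease assay of ClpP1P2, read by the AMC dye that it sets free. Target: ClpP1P2, Mycobacterium tuberculosis (UniProt P9WPC5 and UniProt P9WPC3). Compounds at 50 µM. Direction is inferred from only a few compounds that gave an IC50; most scored high, so higher reads as stronger inhibition. Most other retested compounds had strongly negative values. About 69,000 compounds were tested under these conditions; 0.015% (about 10) showed 50% or more at least once.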
E: 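Enzyme assay of histidyl-tRNA synthetase; the read-out is not stated. Target: Histidine-tRNA ligase, Trypanosoma cruzi CL Brener (UniProt Q4DA54). Compounds at 30 µM. Higher reads as stronger inhibition (inferred: compounds with an IC50 in retests scored well above the rest). Size under these conditions: about 69,000 compounds, about 31 of them at 50% or above in at least one test.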

For O=C(c1cc(-c2ccc(O)cc2)n[nH]1)N1CCCC1c1cccnc1 (stereo unspecified) the result was A: -2.774%; B: -38.69%; C: 5.556%; D: -1.116%; E: 1.02%. O=C(NCCN1CCC(c2cccs2)CC1)Nc1cccs1 gave A: -5.473%; B: -34.34%; C: 30.77%; D: -2.716%; E: 10.74%. Result for Cc1cc2n(n1)CC(CNCc1ccc(OCC3CC3)nc1)CN2 (stereo unspecified) was A: -32.08%; B: 69.29%; C: 6.957%; D: -13.51%; E: 2.299%. Result for [H][C@@]12CN(Cc3ccccn3)C(=O)N1CCN(C1CCN(C(C)=O)CC1)C2 was A: 7.462%; B: 5.592%. With O=C(C1=CCCC1)N1CCC2(CC1)CC(Oc1cccnc1)CO2 (stereo unspecified) the screen gave C: 15.04%; D: -1.731%; E: 5.6%. With CCOCCN1CCN(Cc2cccc(C(=O)N(C)C)c2)CC1 the screen gave A: 8.401%; B: -7.206%; C: 27.69%; D: 0.1584%; E: -0.3831%.

With CNC(=O)CN(C(=O)c1cc(C(C)C)no1)c1cccc(F)c1 the screen gave A: 5.072%; B: -16.59%; C: -1.099%; D: 3.316%; E: 1.031%. Result for CC(C)Oc1ccc(CN2CCC(Cc3nnc(CO)n3C)CC2)cc1 was A: -4.215%; B: -5.607%; C: -3.03%; D: 4.885%; E: 4.348%. CC1c2ncc(CN3CCN(C)CC3)n2CCN1Cc1ccccn1 (stereo unspecified) read C: 33.33%; D: -22.52%; E: 7.477%. Result for CC(C)CNC(=O)C1(Cc2ccccc2-c2ccccc2)CCNC1 (stereo unspecified) was A: -46.99%; B: -113.5%; C: 13.68%; D: 8.384%; E: 8.955%. With CN(C)CC(=O)N1CCC2(CC1)COCCN(c1ncccn1)C2 the screen gave A: 31.34%; B: -80.75%; C: 1.389%; D: -5.663%; E: 2.804%. For O[C@H]1CCN(CC2CCOC2)[C@H]1Cc1ccncc1 (stereo partly specified) the result was A: 0.4787%; B: -53.78%; C: 5.128%; D: -6.453%; E: 1.227%.

Result for CC(C)(CO)Nc1cc(-c2cn[nH]c2)ncn1.Cl was A: -13.61%; B: -11.12%. Result for O=C(Nc1cccnc1)[C@@H]1COC[C@H]2CN(C3CCCC3)C[C@H]21 was C: 19.75%; D: 3.367%; E: -1.84%. For Cc1ncccc1NC(=O)[C@H]1C[C@@H]2CCN(Cc3ccsc3)C[C@H]2O1 the result was C: 5.882%; D: -3.153%; E: 5.911%. Result for NCC1CCC2(CCN(C(=O)c3ccccn3)CC2)CO1 (stereo unspecified) was C: 11.82%; D: -24.56%; E: 6.349%. For Cc1nsc(NC(=O)N2CCCCC2CCO)n1 (stereo unspecified) the result was A: -4.933%; C: 15.38%; D: 1.285%; E: 10.34%. With COc1ccc(C(C)Nc2ncc(C(N)=O)cc2Cl)cc1OC (stereo unspecified) the screen gave A: 3.288%; B: -39.19%; C: 9.859%; D: 8.48%; E: 4.972%.

Result for Cc1occc1C(=O)NCc1ccc(N2CCCC(C(N)=O)C2)cc1 (stereo unspecified) was A: -1.891%; B: -28.17%; C: 17.57%; D: -8.286%; E: 1.132%. With CS(=O)(=O)N1CCC(C(=O)N2CCOc3ccccc32)CC1 the screen gave A: -9.707%; B: -6.081%; C: 6%; D: 3.436%; E: 6.024%. For O=C(NCCN1CCOCC1)c1ccn(-c2ccc3ccccn23)n1.O=C(O)C(F)(F)F the result was A: -1.605%; B: 29.41%. With Cc1cccc2c1nc(COCC(=O)O)n2-c1cnc(N)cn1 the screen gave A: -6.186%; B: -10.76%; C: 68.33%; D: 10.07%; E: 7.955%. For CCC(C)(NCc1nc(C)c(C)o1)c1nccs1 (stereo unspecified) the result was A: 11.67%; B: -40.96%; C: 1.724%; D: -1.391%; E: 5.759%. With Cc1noc(C)c1NC(=O)N1CCC(NC(=O)OC(C)(C)C)CC1 the screen gave A: 2.822%; B: -69.13%; C: 1.667%; D: -1.274%; E: 2.941%.

CC(C)(C)c1cnc(CN2CCN(c3ncccn3)CC2)o1 read A: 3.898%; B: -51.44%; C: -6.494%; D: -6.051%; E: 4.433%. Result for Cl.O=C(Cn1c(-c2ccco2)cc2cccnc21)N1CCCC1 was A: 1.132%; B: -3.497%.